Source: PMC10957901
These are yes or no findings as the source states them, for the method shown. In cells and extracts the contact can be indirect. Some binding calls cover weakened binding; strength is not graded here. Where a sequence is shown, tags or fusion partners need not be part of it.

T1: Flag-VDR (vitamin D receptor, full length) (UniProt P11473)
T1 sequence: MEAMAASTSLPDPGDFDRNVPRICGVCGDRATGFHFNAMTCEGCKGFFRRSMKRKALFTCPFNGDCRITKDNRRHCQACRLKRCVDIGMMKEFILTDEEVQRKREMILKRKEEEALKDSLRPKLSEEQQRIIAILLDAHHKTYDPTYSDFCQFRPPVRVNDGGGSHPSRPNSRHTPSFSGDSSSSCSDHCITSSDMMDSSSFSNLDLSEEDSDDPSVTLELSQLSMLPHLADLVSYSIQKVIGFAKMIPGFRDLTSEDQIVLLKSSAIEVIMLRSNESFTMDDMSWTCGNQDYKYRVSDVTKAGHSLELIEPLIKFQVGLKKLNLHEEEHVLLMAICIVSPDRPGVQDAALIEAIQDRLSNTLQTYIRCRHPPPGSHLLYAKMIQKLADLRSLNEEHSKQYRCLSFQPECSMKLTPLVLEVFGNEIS

T2: Flag-VDR-LBD (C-terminal ligand-binding domain of VDR) (UniProt P11473)
T2 sequence: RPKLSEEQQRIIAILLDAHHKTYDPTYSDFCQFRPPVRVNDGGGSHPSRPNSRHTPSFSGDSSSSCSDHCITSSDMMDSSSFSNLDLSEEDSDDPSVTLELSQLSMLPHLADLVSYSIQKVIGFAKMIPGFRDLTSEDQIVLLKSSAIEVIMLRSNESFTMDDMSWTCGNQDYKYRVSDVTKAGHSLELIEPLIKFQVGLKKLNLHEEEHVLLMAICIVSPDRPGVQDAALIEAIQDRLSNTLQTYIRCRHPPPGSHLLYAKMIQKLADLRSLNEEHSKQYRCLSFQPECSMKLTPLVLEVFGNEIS

B1: Myc-DUB3 (deubiquitinase DUB3, full length) (enzyme, UniProt Q6R6M4 1-530)
chain: MEDDSLYLGGEWQFNHFSKLTSSRPDAAFAEIQRTSLPEKSPLSSEARVDLCDDLAPVARQLAPRKKLPLSSRRPAAVGAGLQNMGNTCYENASLQCLTYTPPLANYMLSREHSQTCQRPKCCMLCTMQAHITWALHSPGHVIQPSQALAAGFHRGKQEDAHEFLMFTVDAMKKACLPGHKQVDHHSKDTTLIHQIFGGCWRSQIKCLHCHGISDTFDPYLDIALDIQAAQSVKQALEQLVKPEELNGENAYHCGLCLQRAPASKTLTLHTSAKVLILVLKRFSDVTGNKLAKNVQYPECLDMQPYMSQQNTGPLVYVLYAVLVHAGWSCHDGHYFSYVKAQEGQWYKMDDAKVTACSITSVLSQQAYVLFYIQKSEWERHSESVSRGREPRALGAEDTDRRATQGELKRDHPCLQAPELDERLVERATQESTLDHWKFPQEQNKTKPEFNVRKVEGTLPPNVLVIHQSKYKCGMKNHHPEQQSSLLNLSSTTRTDQESVNTGTLASLQGRTRRSKGKNKHSKRALLVCQ
B2: Myc-DUB3-N (N-terminal catalytic domain of DUB3) (domain or fragment, UniProt Q6R6M4 1-398)
chain: MEDDSLYLGGEWQFNHFSKLTSSRPDAAFAEIQRTSLPEKSPLSSEARVDLCDDLAPVARQLAPRKKLPLSSRRPAAVGAGLQNMGNTCYENASLQCLTYTPPLANYMLSREHSQTCQRPKCCMLCTMQAHITWALHSPGHVIQPSQALAAGFHRGKQEDAHEFLMFTVDAMKKACLPGHKQVDHHSKDTTLIHQIFGGCWRSQIKCLHCHGISDTFDPYLDIALDIQAAQSVKQALEQLVKPEELNGENAYHCGLCLQRAPASKTLTLHTSAKVLILVLKRFSDVTGNKLAKNVQYPECLDMQPYMSQQNTGPLVYVLYAVLVHAGWSCHDGHYFSYVKAQEGQWYKMDDAKVTACSITSVLSQQAYVLFYIQKSEWERHSESVSRGREPRALGAED

What was measured:
[1] = target: T1, Flag-VDR (vitamin D receptor, full length); test: co-IP; BV2 cells transfected with Flag-tagged VDR and Myc-tagged DUB3 constructs; lysates in IP buffer incubated with the indicated antibody and protein G-agarose beads at 4 °C overnight, three washes, western blotting
[2] = target: T2, Flag-VDR-LBD (C-terminal ligand-binding domain of VDR); test: as above

| Binder | binding [1] | binding [2] |
| --- | --- | --- |
| B1 | binds | binds |
| B2 | binds | binds |
